Results: PMC6822995

Sequences of proteins named here, by UniProt entry; tags and fusion partners are left off. A change or cut given only in a name is not applied to a line headed by its entry.
UniProt F4JQT1: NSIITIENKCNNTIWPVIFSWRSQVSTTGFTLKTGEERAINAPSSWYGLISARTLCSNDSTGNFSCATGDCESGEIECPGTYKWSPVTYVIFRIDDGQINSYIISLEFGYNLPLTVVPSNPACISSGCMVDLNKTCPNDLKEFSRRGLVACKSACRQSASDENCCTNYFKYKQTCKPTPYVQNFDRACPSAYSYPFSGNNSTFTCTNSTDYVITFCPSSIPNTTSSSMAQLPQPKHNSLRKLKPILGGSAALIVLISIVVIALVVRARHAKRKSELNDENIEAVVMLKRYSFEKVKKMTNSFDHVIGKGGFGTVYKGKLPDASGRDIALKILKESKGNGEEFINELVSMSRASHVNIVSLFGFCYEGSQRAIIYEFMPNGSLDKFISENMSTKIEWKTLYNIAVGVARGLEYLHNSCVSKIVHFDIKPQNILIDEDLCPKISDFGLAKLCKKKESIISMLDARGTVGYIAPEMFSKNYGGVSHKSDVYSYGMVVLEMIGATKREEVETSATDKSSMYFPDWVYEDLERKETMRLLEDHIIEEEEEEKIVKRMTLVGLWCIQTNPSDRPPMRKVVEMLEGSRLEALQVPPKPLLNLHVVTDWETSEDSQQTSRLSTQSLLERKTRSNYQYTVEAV
UniProt P49597: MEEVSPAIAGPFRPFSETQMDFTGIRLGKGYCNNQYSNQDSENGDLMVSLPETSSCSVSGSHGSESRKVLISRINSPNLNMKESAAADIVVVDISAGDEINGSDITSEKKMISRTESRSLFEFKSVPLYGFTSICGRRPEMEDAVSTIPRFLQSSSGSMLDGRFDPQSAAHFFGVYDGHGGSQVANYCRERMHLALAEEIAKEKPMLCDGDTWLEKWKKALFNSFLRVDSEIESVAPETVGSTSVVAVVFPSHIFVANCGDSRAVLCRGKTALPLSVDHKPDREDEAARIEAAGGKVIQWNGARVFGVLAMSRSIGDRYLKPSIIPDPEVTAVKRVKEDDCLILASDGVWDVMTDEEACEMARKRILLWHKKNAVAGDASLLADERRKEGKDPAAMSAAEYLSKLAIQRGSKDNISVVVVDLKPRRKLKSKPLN
UniProt O04719: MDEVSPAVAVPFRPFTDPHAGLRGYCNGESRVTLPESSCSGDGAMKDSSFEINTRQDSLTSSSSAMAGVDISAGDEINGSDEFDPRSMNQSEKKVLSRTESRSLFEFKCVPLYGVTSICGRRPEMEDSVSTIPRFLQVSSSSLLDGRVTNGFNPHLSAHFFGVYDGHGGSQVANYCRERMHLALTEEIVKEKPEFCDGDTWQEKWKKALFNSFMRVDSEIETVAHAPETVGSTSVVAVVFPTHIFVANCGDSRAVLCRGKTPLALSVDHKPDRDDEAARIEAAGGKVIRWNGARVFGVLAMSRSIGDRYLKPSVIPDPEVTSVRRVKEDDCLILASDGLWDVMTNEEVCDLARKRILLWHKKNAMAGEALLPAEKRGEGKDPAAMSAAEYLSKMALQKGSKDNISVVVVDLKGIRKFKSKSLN

Biological target: AtPR5K2 fused to the N-terminal fragment of Venus (AtPR5K2^VN) (Arabidopsis thaliana) (UniProt F4JQT1)
Assay: split reporter; BiFC with split Venus (VN on PR5K2, VC on the partner) in Agrobacterium-coinfiltrated N. benthamiana leaves with p19; confocal microscopy of epidermal cells after 48 h at 25°C; also done in the presence or absence of 10 µM exogenous ABA (signals weaker with ABA)

binding | Substance
binds | ABI1 fused to the C-terminal fragment of Venus (ABI1^VC) (from UniProt P49597 1-434) (enzyme)
binds | ABI2 fused to the C-terminal fragment of Venus (ABI2^VC) (from UniProt O04719 1-423) (enzyme)

No constants are given. Whether binding was seen depends on the method and setting. Binding seen in cells or lysates may run through a third protein. Binding calls can cover weak binding; strength is not graded here.
